# From patent US9926581B2, “Fagopyritol synthase genes and uses thereof” (Cornell Research Foundation, Inc., priority 2002, dated 2018)
# Tests used:
# immature soybean embryos = experiment: Embryo feeding experiments: cyclitols fed to immature soybean embryos, precocious maturation by slow drying, soluble carbohydrates in axis and cotyledons; type: in vivo, Glycine max (L.) Merrill
# buckwheat explants = experiment: Buckwheat explant feeding with 100 mM cyclitol in 1% sucrose for 5 days, soluble carbohydrates in embryos and leaf disks; type: in vivo, Fagopyrum esculentum; details: replicate values
# soybean explants = experiment: Soybean explant feeding 3 days with 50 mM cyclitol in 1% sucrose, slow drying time course, soluble carbohydrates in axis, cotyledon, seed coat and leaf
# [1] = 3 days transport of sucrose (1%) and D-chiro-inositol (50 mM), after 2 days slow drying, Rep 1
# [2] = 3 days transport of sucrose (1%) and D-chiro-inositol (50 mM), after 2 days slow drying, Rep 2
# [3] = 3 days transport of sucrose (1%) and D-chiro-inositol (50 mM), after 4 days slow drying, Rep 1
# [4] = 3 days transport of sucrose (1%) and D-chiro-inositol (50 mM), after 4 days slow drying, Rep 2
# [5] = 3 days transport of sucrose (1%) and D-chiro-inositol (50 mM), after 14 days slow drying, Rep 1
# [6] = 3 days transport of sucrose (1%) and D-chiro-inositol (50 mM), after 14 days slow drying, Rep 2
# [7] = 3 days transport of sucrose (1%) and D-chiro-inositol (50 mM), before slow drying, Rep 1
# [8] = 3 days transport of sucrose (1%) and D-chiro-inositol (50 mM), before slow drying, Rep 2
# [9] = 3 days transport of sucrose (1%) and D-pinitol (50 mM), after 2 days slow drying, Rep 1
# [10] = 3 days transport of sucrose (1%) and D-pinitol (50 mM), after 2 days slow drying, Rep 2
# [11] = 3 days transport of sucrose (1%) and D-pinitol (50 mM), after 4 days slow drying, Rep 1
# [12] = 3 days transport of sucrose (1%) and D-pinitol (50 mM), after 4 days slow drying, Rep 2
# [13] = 3 days transport of sucrose (1%) and D-pinitol (50 mM), after 14 days slow drying, Rep 1
# [14] = 3 days transport of sucrose (1%) and D-pinitol (50 mM), after 14 days slow drying, Rep 2
# [15] = 3 days transport of sucrose (1%) and D-pinitol (50 mM), before slow drying, Rep 1
# [16] = 3 days transport of sucrose (1%) and D-pinitol (50 mM), before slow drying, Rep 2
# [17] = 3 days transport of sucrose (1%) and myo-inositol (50 mM), after 2 days slow drying, Rep 1
# [18] = 3 days transport of sucrose (1%) and myo-inositol (50 mM), after 2 days slow drying, Rep 2
# [19] = 3 days transport of sucrose (1%) and myo-inositol (50 mM), after 4 days slow drying, Rep 1
# [20] = 3 days transport of sucrose (1%) and myo-inositol (50 mM), after 4 days slow drying, Rep 2
# [21] = 3 days transport of sucrose (1%) and myo-inositol (50 mM), after 14 days slow drying, Rep 1
# [22] = 3 days transport of sucrose (1%) and myo-inositol (50 mM), after 14 days slow drying, Rep 2
# [23] = 3 days transport of sucrose (1%) and myo-inositol (50 mM), before slow drying, Rep 1
# [24] = 3 days transport of sucrose (1%) and myo-inositol (50 mM), before slow drying, Rep 2
# [25] = 3 days transport of sucrose (1%) without cyclitols, after 2 days slow drying, Rep 1
# [26] = 3 days transport of sucrose (1%) without cyclitols, after 2 days slow drying, Rep 2
# [27] = 3 days transport of sucrose (1%) without cyclitols, after 4 days slow drying, Rep 1
# [28] = 3 days transport of sucrose (1%) without cyclitols, after 4 days slow drying, Rep 2
# [29] = 3 days transport of sucrose (1%) without cyclitols, after 14 days slow drying, Rep 1
# [30] = 3 days transport of sucrose (1%) without cyclitols, after 14 days slow drying, Rep 2
# [31] = 3 days transport of sucrose (1%) without cyclitols, before slow drying, Rep 1
# [32] = 3 days transport of sucrose (1%) without cyclitols, before slow drying, Rep 2
substance,measurement,setting,value
galactopinitol B,change in concentration after feeding myo-inositol,"immature soybean embryos; axis and cotyledon tissues, myo-inositol up to 50 mM, after precocious maturation",little change
same,increase in concentration after feeding D-chiro-inositol,"immature soybean embryos; axis and cotyledons, concentration series, 14 days precocious maturation",did not increase
same,Soluble carbohydrates in embryos of seeds from buckwheat explants,"buckwheat explants; fed 100 mM D-chiro-inositol in 1% sucrose solution 5 days, 2 days slow drying",0 μg/embryo
same,Soluble carbohydrates in embryos of seeds from buckwheat explants,"buckwheat explants; fed 100 mM D-chiro-inositol in 1% sucrose solution 5 days, 4 days slow drying",0 μg/embryo
same,Soluble carbohydrates in embryos of seeds from buckwheat explants,"buckwheat explants; fed 100 mM D-chiro-inositol in 1% sucrose solution 5 days, 7 days slow drying",0 μg/embryo
same,Soluble carbohydrates in embryos of seeds from buckwheat explants,"buckwheat explants; fed 100 mM D-chiro-inositol in 1% sucrose solution, after 1 day feeding",0 μg/embryo
same,Soluble carbohydrates in embryos of seeds from buckwheat explants,"buckwheat explants; fed 100 mM D-chiro-inositol in 1% sucrose solution, after 5 days feeding",0 μg/embryo
same,Soluble carbohydrates in embryos of seeds from buckwheat explants,"buckwheat explants; fed 100 mM D-pinitol in 1% sucrose solution 5 days, 2 days slow drying",4.39 μg/embryo and 0 μg/embryo (2×)
same,Soluble carbohydrates in embryos of seeds from buckwheat explants,"buckwheat explants; fed 100 mM D-pinitol in 1% sucrose solution 5 days, 4 days slow drying",5.88 μg/embryo and 0 μg/embryo (2×)
same,Soluble carbohydrates in embryos of seeds from buckwheat explants,"buckwheat explants; fed 100 mM D-pinitol in 1% sucrose solution 5 days, 7 days slow drying",0 μg/embryo (2×) and 1.81 μg/embryo
same,Soluble carbohydrates in embryos of seeds from buckwheat explants,"buckwheat explants; fed 100 mM D-pinitol in 1% sucrose solution, after 1 day feeding",0 μg/embryo
same,Soluble carbohydrates in embryos of seeds from buckwheat explants,"buckwheat explants; fed 100 mM D-pinitol in 1% sucrose solution, after 5 days feeding",1.61 μg/embryo and 1.10 μg/embryo and 1.90 μg/embryo
same,Soluble carbohydrates in embryos of seeds from buckwheat explants,"buckwheat explants; fed 100 mM myo-inositol in 1% sucrose solution 5 days, 2 days slow drying",0 μg/embryo
same,Soluble carbohydrates in embryos of seeds from buckwheat explants,"buckwheat explants; fed 100 mM myo-inositol in 1% sucrose solution 5 days, 4 days slow drying",0 μg/embryo
same,Soluble carbohydrates in embryos of seeds from buckwheat explants,"buckwheat explants; fed 100 mM myo-inositol in 1% sucrose solution 5 days, 7 days slow drying",0 μg/embryo
same,Soluble carbohydrates in embryos of seeds from buckwheat explants,"buckwheat explants; fed 100 mM myo-inositol in 1% sucrose solution, after 1 day feeding",0 μg/embryo
same,Soluble carbohydrates in embryos of seeds from buckwheat explants,"buckwheat explants; fed 100 mM myo-inositol in 1% sucrose solution, after 5 days feeding",0 μg/embryo
same,Soluble carbohydrates in embryos of seeds from buckwheat explants,"buckwheat explants; fed 1% sucrose (without cyclitols) solution 5 days, 2 days slow drying",0 μg/embryo
same,Soluble carbohydrates in embryos of seeds from buckwheat explants,"buckwheat explants; fed 1% sucrose (without cyclitols) solution 5 days, 4 days slow drying",0 μg/embryo
same,Soluble carbohydrates in embryos of seeds from buckwheat explants,"buckwheat explants; fed 1% sucrose (without cyclitols) solution 5 days, 7 days slow drying",0 μg/embryo
same,Soluble carbohydrates in embryos of seeds from buckwheat explants,"buckwheat explants; fed 1% sucrose (without cyclitols) solution, after 5 days feeding",0 μg/embryo and tr
same,Accumulation of soluble carbohydrates in soybean axis,soybean explants; [1],1.47 μg/axis
same,Accumulation of soluble carbohydrates in soybean cotyledon,soybean explants; [1],0 μg/cotyledon
same,Accumulation of soluble carbohydrates in soybean seed coat,soybean explants; [1],0 μg/seed coat
same,Accumulation of soluble carbohydrates in soybean axis,soybean explants; [2],1.56 μg/axis
same,Accumulation of soluble carbohydrates in soybean cotyledon,soybean explants; [2],0 μg/cotyledon
same,Accumulation of soluble carbohydrates in soybean seed coat,soybean explants; [2],0.79 μg/seed coat
same,Accumulation of soluble carbohydrates in soybean axis,soybean explants; [3],6.35 μg/axis
same,Accumulation of soluble carbohydrates in soybean cotyledon,soybean explants; [3],22.34 μg/cotyledon
same,Accumulation of soluble carbohydrates in soybean seed coat,soybean explants; [3],1.76 μg/seed coat
same,Accumulation of soluble carbohydrates in soybean axis,soybean explants; [4],4.73 μg/axis
same,Accumulation of soluble carbohydrates in soybean cotyledon,soybean explants; [4],20.06 μg/cotyledon
same,Accumulation of soluble carbohydrates in soybean seed coat,soybean explants; [4],0.78 μg/seed coat
same,Accumulation of soluble carbohydrates in soybean axis,soybean explants; [5],9.35 μg/axis
same,Accumulation of soluble carbohydrates in soybean cotyledon,soybean explants; [5],25.58 μg/cotyledon
same,Accumulation of soluble carbohydrates in soybean seed coat,soybean explants; [5],0 μg/seed coat
same,Accumulation of soluble carbohydrates in soybean axis,soybean explants; [6],5.03 μg/axis
same,Accumulation of soluble carbohydrates in soybean cotyledon,soybean explants; [6],23.82 μg/cotyledon
same,Accumulation of soluble carbohydrates in soybean seed coat,soybean explants; [6],3.14 μg/seed coat
same,Accumulation of soluble carbohydrates in soybean axis,soybean explants; [7],0 μg/axis
same,Accumulation of soluble carbohydrates in soybean cotyledon,soybean explants; [7],0 μg/cotyledon
same,Accumulation of soluble carbohydrates in soybean axis,soybean explants; [8],0 μg/axis
same,Accumulation of soluble carbohydrates in soybean cotyledon,soybean explants; [8],0 μg/cotyledon
same,Accumulation of soluble carbohydrates in soybean axis,soybean explants; [9],3.09 μg/axis
same,Accumulation of soluble carbohydrates in soybean cotyledon,soybean explants; [9],0 μg/cotyledon
same,Accumulation of soluble carbohydrates in soybean seed coat,soybean explants; [9],0 μg/seed coat
same,Accumulation of soluble carbohydrates in soybean axis,soybean explants; [10],3.49 μg/axis
same,Accumulation of soluble carbohydrates in soybean cotyledon,soybean explants; [10],1.48 μg/cotyledon
same,Accumulation of soluble carbohydrates in soybean seed coat,soybean explants; [10],3.09 μg/seed coat
same,Accumulation of soluble carbohydrates in soybean axis,soybean explants; [11],9.62 μg/axis
same,Accumulation of soluble carbohydrates in soybean cotyledon,soybean explants; [11],41.39 μg/cotyledon
same,Accumulation of soluble carbohydrates in soybean seed coat,soybean explants; [11],1.44 μg/seed coat
same,Accumulation of soluble carbohydrates in soybean axis,soybean explants; [12],7.25 μg/axis
same,Accumulation of soluble carbohydrates in soybean cotyledon,soybean explants; [12],50.76 μg/cotyledon
same,Accumulation of soluble carbohydrates in soybean seed coat,soybean explants; [12],2.10 μg/seed coat
same,Accumulation of soluble carbohydrates in soybean axis,soybean explants; [13],10.61 μg/axis
same,Accumulation of soluble carbohydrates in soybean cotyledon,soybean explants; [13],29.37 μg/cotyledon
same,Accumulation of soluble carbohydrates in soybean seed coat,soybean explants; [13],3.57 μg/seed coat
same,Accumulation of soluble carbohydrates in soybean axis,soybean explants; [14],12.71 μg/axis
same,Accumulation of soluble carbohydrates in soybean cotyledon,soybean explants; [14],40.39 μg/cotyledon
same,Accumulation of soluble carbohydrates in soybean seed coat,soybean explants; [14],6.98 μg/seed coat
same,Accumulation of soluble carbohydrates in soybean axis,soybean explants; [15],0 μg/axis
same,Accumulation of soluble carbohydrates in soybean cotyledon,soybean explants; [15],0 μg/cotyledon
same,Accumulation of soluble carbohydrates in soybean axis,soybean explants; [16],0 μg/axis
same,Accumulation of soluble carbohydrates in soybean cotyledon,soybean explants; [16],0 μg/cotyledon
same,Accumulation of soluble carbohydrates in soybean axis,soybean explants; [17],1.29 μg/axis
same,Accumulation of soluble carbohydrates in soybean cotyledons,soybean explants; [17],6.27 μg/cotyledon
same,Accumulation of soluble carbohydrates in soybean seed coats,soybean explants; [17],0 μg/seed coat
same,Accumulation of soluble carbohydrates in soybean axis,soybean explants; [18],2.20 μg/axis
same,Accumulation of soluble carbohydrates in soybean cotyledons,soybean explants; [18],3.19 μg/cotyledon
same,Accumulation of soluble carbohydrates in soybean seed coats,soybean explants; [18],0 μg/seed coat
same,Accumulation of soluble carbohydrates in soybean axis,soybean explants; [19],3.06 μg/axis
same,Accumulation of soluble carbohydrates in soybean cotyledons,soybean explants; [19],11.92 μg/cotyledon
same,Accumulation of soluble carbohydrates in soybean axis,soybean explants; [20],4.60 μg/axis
same,Accumulation of soluble carbohydrates in soybean cotyledons,soybean explants; [20],28.11 μg/cotyledon
same,Accumulation of soluble carbohydrates in soybean seed coats,soybean explants; [20],1.07 μg/seed coat
same,Accumulation of soluble carbohydrates in soybean axis,soybean explants; [21],5.50 μg/axis
same,Accumulation of soluble carbohydrates in soybean cotyledons,soybean explants; [21],15.29 μg/cotyledon
same,Accumulation of soluble carbohydrates in soybean seed coats,soybean explants; [21],0 μg/seed coat
same,Accumulation of soluble carbohydrates in soybean axis,soybean explants; [22],3.91 μg/axis
same,Accumulation of soluble carbohydrates in soybean cotyledons,soybean explants; [22],9.70 μg/cotyledon
same,Accumulation of soluble carbohydrates in soybean seed coats,soybean explants; [22],2.22 μg/seed coat
same,Accumulation of soluble carbohydrates in soybean axis,soybean explants; [23],0.72 μg/axis
same,Accumulation of soluble carbohydrates in soybean cotyledons,soybean explants; [23],0 μg/cotyledon
same,Accumulation of soluble carbohydrates in soybean axis,soybean explants; [24],0 μg/axis
same,Accumulation of soluble carbohydrates in soybean cotyledons,soybean explants; [24],0 μg/cotyledon
same,Accumulation of soluble carbohydrates in soybean axis,soybean explants; [25],1.81 μg/axis
same,Accumulation of soluble carbohydrates in soybean cotyledon,soybean explants; [25],1.56 μg/cotyledon
same,Accumulation of soluble carbohydrates in soybean seed coats,soybean explants; [25],0 μg/seed coat
same,Accumulation of soluble carbohydrates in soybean axis,soybean explants; [26],2.60 μg/axis
same,Accumulation of soluble carbohydrates in soybean cotyledon,soybean explants; [26],1.54 μg/cotyledon
same,Accumulation of soluble carbohydrates in soybean seed coats,soybean explants; [26],1.22 μg/seed coat
same,Accumulation of soluble carbohydrates in soybean axis,soybean explants; [27],7.11 μg/axis
same,Accumulation of soluble carbohydrates in soybean cotyledon,soybean explants; [27],40.67 μg/cotyledon
same,Accumulation of soluble carbohydrates in soybean seed coats,soybean explants; [27],1.45 μg/seed coat
same,Accumulation of soluble carbohydrates in soybean axis,soybean explants; [28],7.06 μg/axis
same,Accumulation of soluble carbohydrates in soybean cotyledon,soybean explants; [28],36.28 μg/cotyledon
same,Accumulation of soluble carbohydrates in soybean seed coats,soybean explants; [28],0 μg/seed coat
same,Accumulation of soluble carbohydrates in soybean axis,soybean explants; [29],7.78 μg/axis
same,Accumulation of soluble carbohydrates in soybean cotyledon,soybean explants; [29],49.91 μg/cotyledon
same,Accumulation of soluble carbohydrates in soybean seed coats,soybean explants; [29],0 μg/seed coat
same,Accumulation of soluble carbohydrates in soybean axis,soybean explants; [30],5.09 μg/axis
same,Accumulation of soluble carbohydrates in soybean cotyledon,soybean explants; [30],30.24 μg/cotyledon
same,Accumulation of soluble carbohydrates in soybean seed coats,soybean explants; [30],2.18 μg/seed coat
same,Accumulation of soluble carbohydrates in soybean axis,soybean explants; [31],0 μg/axis
same,Accumulation of soluble carbohydrates in soybean cotyledon,soybean explants; [31],4.55 μg/cotyledon
same,Accumulation of soluble carbohydrates in soybean axis,soybean explants; [32],0 μg/axis
same,Accumulation of soluble carbohydrates in soybean cotyledon,soybean explants; [32],1.73 μg/cotyledon

# “And” between values parts separate entries of the source, which are not always exact repeats. Identical values can stand only once.
